According to patent US20220298255A1 (SEATTLE CHILDREN S HOSPITAL D B A SEATTLE CHILDREN S …, published 2022):
These are yes or no findings as the source states them, for the method shown. Some entries that bind do so weakly or less than the wild type.

Protein sequences, listed by entry. Tags and fused reporters are not part of them. Residues count along the entry.
UniProt P12830, residues 155-367: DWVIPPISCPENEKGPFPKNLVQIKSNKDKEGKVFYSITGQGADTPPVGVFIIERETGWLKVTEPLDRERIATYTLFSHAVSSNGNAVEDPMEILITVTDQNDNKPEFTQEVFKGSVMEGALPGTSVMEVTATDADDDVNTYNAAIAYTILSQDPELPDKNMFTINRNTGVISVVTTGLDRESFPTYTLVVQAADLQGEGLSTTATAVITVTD

Target: human E-cadherin fragment containing domains EC1-EC2 (human) (UniProt P12830)
Assay: X-ray crystal structure of the complex

binding: binds
B1: Fab from activating mAb 66E8 (Fab, V domains shown)
VH: EVQLQQSGPELVKPGASVKISCKASGYSFTGYFMNWVKQSHGKSLEWIGRINPYNGDTFYKQRFKGKATLTVDKSSSTVHMDLLSLTSEDSAVYYCGRGNYYFDYWGQGTTLTVSS
VL: DVQITQSPSYLAASPGETITINCRTSKNISKYLAWYQEKPGKTNKLLIYSGYTLQSGIPSRFSGSGSGTDFTLTISSLEPEDFAMYYCQQHNEYPYTFGGGTKLEIK
